{
  "source": "PubChem BioAssay AID588499",
  "about": "(NMMLSC, 2011)",
  "note": "About 610 (0.17%) of roughly 360,000 compounds were called active. Inconclusive results, whose numbers are uncertain, are shown with a selection of clear calls. Rule as the data show it: active = inhibition above about 30%; inconclusive = no clear call, values can overlap the other calls; inactive = below that.",
  "data": [
    {"tested_on": "Botulinum neurotoxin type A light chain protease (Clostridium botulinum A str. ATCC 3502)", "assay": "blockers of BoNT/A LC substrate cleavage – biochemical, flow cytometry, MLPCN library, primary screen (AID 588499); also: plate controls were buffer without enzyme for full effect and enzyme alone for no effect", "details": "multiplex microsphere protease substrate cleavage, at 10 µM, active compounds read high", "values": [
      {"compound": "N#Cc1c(N)nc2c(c1-c1cccnc1)CCCCC2", "inhibition": "inconclusive: -0.2%"},
      {"compound": "O=c1c2c(-c3ccccc3)csc2nc2c3ccccc3c(NCCN3CCOCC3)nn12", "inhibition": "active: 32.5%"},
      {"compound": "CC(=O)Nc1ccc2c(c1)nc1n2CCOC1", "inhibition": "inconclusive: -3.7%"},
      {"compound": "COc1ccc(-n2c(SC)nc(O)c(Cc3ccccc3)c2=O)cc1", "inhibition": "inconclusive: 0.5%"},
      {"compound": "COc1ccc(-n2c(=O)n(Cc3ccccc3)c(=O)c3[nH]cnc32)cc1", "inhibition": "inconclusive: -6.9%"},
      {"compound": "O=C(Nn1c(O)c(C=C2N=c3ccccc3=N2)sc1=S)c1cccc(Cl)c1", "inhibition": "active: 54.7%"},
      {"compound": "COc1ccc(/C=C2/CCOC2=O)cc1", "inhibition": "inactive: -0.1%"},
      {"compound": "COc1ccc2cc(C(=O)N/N=C/c3sc4ccccc4c3O)ccc2c1", "inhibition": "active: 34.1%"},
      {"compound": "Cc1csc2ncc(C(=O)Nc3ccccc3F)c(=O)n12", "inhibition": "inactive: -0.4%"},
      {"compound": "CCOC(=O)Nc1cccc(Cl)c1C", "inhibition": "inactive: -0.2%"},
      {"compound": "Cc1ccc(C(=O)N(c2ccccn2)C(C)c2ccco2)cc1C", "note": "(centres undefined)", "inhibition": "inconclusive: 3%"},
      {"compound": "N/C(Cc1ccc(Cl)cc1Cl)=N\\OC(=O)c1ccccc1F", "inhibition": "inactive: 0.6%"},
      {"compound": "C[C@@H]1CN([C@@H](C)CO)C(=O)CCCn2nncc2CO[C@@H]1CN(C)S(=O)(=O)c1ccc2ccccc2c1", "inhibition": "inactive: 0.1%"},
      {"compound": "C=CCOC(=O)C1CC=CCC1C(=O)Oc1ccc(F)cc1F", "note": "(centres undefined)", "inhibition": "inconclusive: -0.8%"},
      {"compound": "CCOC(=O)c1ncn2c1C(=O)OC2(C)C", "inhibition": "inconclusive: 2.9%"},
      {"compound": "C=CCn1c(SCC(=O)c2ccc(NS(=O)(=O)c3ccccc3)cc2)nnc1-c1cccs1", "inhibition": "inconclusive: 3.6%"},
      {"compound": "Clc1ccc(Cc2noc(CN3CCN(c4ccccc4)CC3)n2)c(Cl)c1", "inhibition": "inconclusive: -3.6%"},
      {"compound": "O=C(CN1C(=O)CCS(=O)(=O)c2ccccc21)Nc1ccccc1F", "inhibition": "inactive: 0.5%"},
      {"compound": "CC(=O)N(C)c1ccc(NS(=O)(=O)Cc2ccccc2)cc1", "inhibition": "inconclusive: 0.6%"},
      {"compound": "COc1cc(C2NC(=O)CCC2[N+](=O)[O-])c(OC)cc1Br", "note": "(centres undefined)", "inhibition": "inactive: 4.6%"},
      {"compound": "S=C(NCCc1ccccc1)NCCN1CCOCC1", "inhibition": "inconclusive: 5.3%"},
      {"compound": "COc1ccccc1CC(=O)Nc1ccc(-c2noc(COc3ccc(Cl)c(C)c3)n2)cc1", "inhibition": "inconclusive: 1.6%"},
      {"compound": "CSc1ccccc1NC(=O)Nc1ccccc1", "inhibition": "inconclusive: -4.5%"},
      {"compound": "Nc1nonc1-n1nnc(C(=O)N/N=C/c2ccccc2Cl)c1-c1ccc2c(c1)OCO2", "inhibition": "inactive: -2.7%"},
      {"compound": "Cn1c(C(=O)NN)cc2cc(Oc3ccccc3)ccc21", "inhibition": "inconclusive: -0.9%"},
      {"compound": "CCOC(=O)c1[nH]c2cc(OC)c(OC)cc2c1NC(=O)CCN1CCSCC1", "inhibition": "inconclusive: 3.4%"},
      {"compound": "COc1ccc(NC(=O)NCc2ccccn2)cc1OC", "inhibition": "inactive: 7.2%"},
      {"compound": "CCCCNc1c(-c2ccc(-c3ccc(C(C)=O)cc3)c(OC)c2)nc2cc(C)ccn12", "inhibition": "inactive: -0.8%"},
      {"compound": "CNc1sc(C(=O)c2ccccc2F)c(N)c1-c1nc2ccccc2s1", "inhibition": "inconclusive: 16.2%"},
      {"compound": "CCOCCCNC(=O)c1cc2sc(Cl)cc2n1CC", "inhibition": "inconclusive: -10.1%"},
      {"compound": "CCOP(=O)(C#Cc1ccccc1)C(O)c1ccc(Br)cc1", "note": "(centres undefined)", "inhibition": "inconclusive: -46.1%"},
      {"compound": "CCOc1ccc2c(c1)s/c(=N\\S(=O)(=O)c1ccc(OC)cc1)n2C(F)F", "inhibition": "inactive: -0.4%"},
      {"compound": "Fc1cccc(Cl)c1Cn1ncc2ccccc21", "inhibition": "inactive: -1.5%"},
      {"compound": "O=C(O)CN(c1ccccc1F)S(=O)(=O)c1ccccc1", "inhibition": "inconclusive: -4%"},
      {"compound": "S=C1NCC(c2ccccc2)S1", "note": "(centres undefined)", "inhibition": "inactive: 0.8%"},
      {"compound": "Cc1cc(C)nc(/N=C(\\N)Nc2ccccc2-c2ccccc2)n1", "inhibition": "inactive: 1.7%"},
      {"compound": "CCOC(=O)C1=C(c2ccccc2)Nc2c(c(=O)n(C)c(=O)n2C)C1c1ccc(O)c(OC)c1", "note": "(centres undefined)", "inhibition": "inconclusive: 2.9%"},
      {"compound": "COc1ccc(-c2ccc(-c3nnc(-c4cc(OC)ccc4OC)o3)cc2)cc1", "inhibition": "inconclusive: -1.1%"},
      {"compound": "Cc1ccc(NC(=O)c2ccco2)c(NC(=O)Cc2cccs2)c1", "inhibition": "inconclusive: 1.3%"},
      {"compound": "Cc1ccc(NC(=O)CC(O)(C(F)(F)F)C(F)(F)F)cc1", "inhibition": "inconclusive: 0.4%"},
      {"compound": "CCCCNC(=S)N/N=C/c1ccc(C)s1", "inhibition": "inconclusive: -5.7%"},
      {"compound": "Cn1c(=O)c2c(nc3n2CC(CO)O3)n(C)c1=O", "note": "(centres undefined)", "inhibition": "inactive: 4.6%"},
      {"compound": "Cc1cc(C)n2nc(C(=O)N/N=C/c3ccco3)nc2n1", "inhibition": "inconclusive: -2.8%"},
      {"compound": "CC(C)(C)NC(=O)CN(C(=O)CS(=O)CC(=O)Nc1ccc(F)cc1)c1ccc(Cl)cc1", "note": "(centres undefined)", "inhibition": "inconclusive: 3.5%"},
      {"compound": "Clc1cccc(Cl)c1CSc1nnc([C@@H]2CCCN2)o1", "inhibition": "inconclusive: -1.1%"},
      {"compound": "CCOc1ccc(S(=O)(=O)N/N=C\\c2ccc3c(c2)OCO3)cc1", "inhibition": "inconclusive: 0.1%"},
      {"compound": "N#CCC(=O)Nc1ccc(C(=O)NNC(=S)NC2CC2)cc1", "inhibition": "inconclusive: -0.3%"},
      {"compound": "CCn1c(=O)c2cc(C(=O)NCCN3CCOCC3)sc2c2ccccc21", "inhibition": "inactive: -0.1%"},
      {"compound": "C[C@H](CO)N1C[C@H](C)[C@@H](CN(C)C(=O)Nc2ccc3c(c2)OCO3)Oc2ccc(NC(=O)NC3CCCCC3)cc2C1=O", "inhibition": "inactive: 0.3%"},
      {"compound": "O=C(C[n+]1cc(-c2ccc(Cl)cc2)n2c1CCC2)Nc1nc(-c2ccc(F)cc2)cs1", "inhibition": "inconclusive: 19.1%"},
      {"compound": "CCN(CC)CC(O)COc1ccccc1C(=O)CCc1ccccc1", "note": "(centres undefined)", "inhibition": "inconclusive: 0.1%"},
      {"compound": "CCCC(=O)N1CCN(c2ccc([N+](=O)[O-])c(NC(C)c3ccccc3)c2)CC1", "note": "(centres undefined)", "inhibition": "inactive: -1.1%"},
      {"compound": "c1ccc(-n2cnc3cc(NCc4cccs4)ccc32)cc1", "inhibition": "inconclusive: -1.8%"},
      {"compound": "C=CCOC(=O)CCC(=O)Nc1cc(OC)nc(OC)n1", "inhibition": "inconclusive: 1.5%"},
      {"compound": "O=C(Nc1nc2c(s1)CCc1ccccc1-2)c1ccco1", "inhibition": "inconclusive: 0.5%"},
      {"compound": "CC(=O)NS(=O)(=O)c1ccc(NC(=S)Nc2ccccc2)cc1", "inhibition": "inconclusive: -2.5%"},
      {"compound": "CC1=CC(c2ccccc2)n2nc(NC(=O)CCCC(=O)O)nc2N1", "note": "(centres undefined)", "inhibition": "inactive: 0.3%"},
      {"compound": "O=C(CSc1nnnn1-c1ccc(O)cc1)c1cc2ccccc2o1", "inhibition": "inconclusive: 9.6%"},
      {"compound": "Cc1cc(C)c(S(=O)(=O)N2CCN(C(=O)c3cc4ccccc4oc3=O)CC2)c(C)c1", "inhibition": "inactive: -0.4%"}
    ]}
  ]
}
